Results taken from patent publication US20110217401A1.
Results are given in words; binding and its absence hold for the method and conditions named. In cells and extracts the contact can be indirect. Some entries that bind do so weakly or less than the wild type.

Chains of the proteins cited; added tags and fusions are not shown. Lines headed by an entry give the natural chain unless they say otherwise; changes in a name come on top. Residues count along the entry.
UniProt P04114, residues 28-4563: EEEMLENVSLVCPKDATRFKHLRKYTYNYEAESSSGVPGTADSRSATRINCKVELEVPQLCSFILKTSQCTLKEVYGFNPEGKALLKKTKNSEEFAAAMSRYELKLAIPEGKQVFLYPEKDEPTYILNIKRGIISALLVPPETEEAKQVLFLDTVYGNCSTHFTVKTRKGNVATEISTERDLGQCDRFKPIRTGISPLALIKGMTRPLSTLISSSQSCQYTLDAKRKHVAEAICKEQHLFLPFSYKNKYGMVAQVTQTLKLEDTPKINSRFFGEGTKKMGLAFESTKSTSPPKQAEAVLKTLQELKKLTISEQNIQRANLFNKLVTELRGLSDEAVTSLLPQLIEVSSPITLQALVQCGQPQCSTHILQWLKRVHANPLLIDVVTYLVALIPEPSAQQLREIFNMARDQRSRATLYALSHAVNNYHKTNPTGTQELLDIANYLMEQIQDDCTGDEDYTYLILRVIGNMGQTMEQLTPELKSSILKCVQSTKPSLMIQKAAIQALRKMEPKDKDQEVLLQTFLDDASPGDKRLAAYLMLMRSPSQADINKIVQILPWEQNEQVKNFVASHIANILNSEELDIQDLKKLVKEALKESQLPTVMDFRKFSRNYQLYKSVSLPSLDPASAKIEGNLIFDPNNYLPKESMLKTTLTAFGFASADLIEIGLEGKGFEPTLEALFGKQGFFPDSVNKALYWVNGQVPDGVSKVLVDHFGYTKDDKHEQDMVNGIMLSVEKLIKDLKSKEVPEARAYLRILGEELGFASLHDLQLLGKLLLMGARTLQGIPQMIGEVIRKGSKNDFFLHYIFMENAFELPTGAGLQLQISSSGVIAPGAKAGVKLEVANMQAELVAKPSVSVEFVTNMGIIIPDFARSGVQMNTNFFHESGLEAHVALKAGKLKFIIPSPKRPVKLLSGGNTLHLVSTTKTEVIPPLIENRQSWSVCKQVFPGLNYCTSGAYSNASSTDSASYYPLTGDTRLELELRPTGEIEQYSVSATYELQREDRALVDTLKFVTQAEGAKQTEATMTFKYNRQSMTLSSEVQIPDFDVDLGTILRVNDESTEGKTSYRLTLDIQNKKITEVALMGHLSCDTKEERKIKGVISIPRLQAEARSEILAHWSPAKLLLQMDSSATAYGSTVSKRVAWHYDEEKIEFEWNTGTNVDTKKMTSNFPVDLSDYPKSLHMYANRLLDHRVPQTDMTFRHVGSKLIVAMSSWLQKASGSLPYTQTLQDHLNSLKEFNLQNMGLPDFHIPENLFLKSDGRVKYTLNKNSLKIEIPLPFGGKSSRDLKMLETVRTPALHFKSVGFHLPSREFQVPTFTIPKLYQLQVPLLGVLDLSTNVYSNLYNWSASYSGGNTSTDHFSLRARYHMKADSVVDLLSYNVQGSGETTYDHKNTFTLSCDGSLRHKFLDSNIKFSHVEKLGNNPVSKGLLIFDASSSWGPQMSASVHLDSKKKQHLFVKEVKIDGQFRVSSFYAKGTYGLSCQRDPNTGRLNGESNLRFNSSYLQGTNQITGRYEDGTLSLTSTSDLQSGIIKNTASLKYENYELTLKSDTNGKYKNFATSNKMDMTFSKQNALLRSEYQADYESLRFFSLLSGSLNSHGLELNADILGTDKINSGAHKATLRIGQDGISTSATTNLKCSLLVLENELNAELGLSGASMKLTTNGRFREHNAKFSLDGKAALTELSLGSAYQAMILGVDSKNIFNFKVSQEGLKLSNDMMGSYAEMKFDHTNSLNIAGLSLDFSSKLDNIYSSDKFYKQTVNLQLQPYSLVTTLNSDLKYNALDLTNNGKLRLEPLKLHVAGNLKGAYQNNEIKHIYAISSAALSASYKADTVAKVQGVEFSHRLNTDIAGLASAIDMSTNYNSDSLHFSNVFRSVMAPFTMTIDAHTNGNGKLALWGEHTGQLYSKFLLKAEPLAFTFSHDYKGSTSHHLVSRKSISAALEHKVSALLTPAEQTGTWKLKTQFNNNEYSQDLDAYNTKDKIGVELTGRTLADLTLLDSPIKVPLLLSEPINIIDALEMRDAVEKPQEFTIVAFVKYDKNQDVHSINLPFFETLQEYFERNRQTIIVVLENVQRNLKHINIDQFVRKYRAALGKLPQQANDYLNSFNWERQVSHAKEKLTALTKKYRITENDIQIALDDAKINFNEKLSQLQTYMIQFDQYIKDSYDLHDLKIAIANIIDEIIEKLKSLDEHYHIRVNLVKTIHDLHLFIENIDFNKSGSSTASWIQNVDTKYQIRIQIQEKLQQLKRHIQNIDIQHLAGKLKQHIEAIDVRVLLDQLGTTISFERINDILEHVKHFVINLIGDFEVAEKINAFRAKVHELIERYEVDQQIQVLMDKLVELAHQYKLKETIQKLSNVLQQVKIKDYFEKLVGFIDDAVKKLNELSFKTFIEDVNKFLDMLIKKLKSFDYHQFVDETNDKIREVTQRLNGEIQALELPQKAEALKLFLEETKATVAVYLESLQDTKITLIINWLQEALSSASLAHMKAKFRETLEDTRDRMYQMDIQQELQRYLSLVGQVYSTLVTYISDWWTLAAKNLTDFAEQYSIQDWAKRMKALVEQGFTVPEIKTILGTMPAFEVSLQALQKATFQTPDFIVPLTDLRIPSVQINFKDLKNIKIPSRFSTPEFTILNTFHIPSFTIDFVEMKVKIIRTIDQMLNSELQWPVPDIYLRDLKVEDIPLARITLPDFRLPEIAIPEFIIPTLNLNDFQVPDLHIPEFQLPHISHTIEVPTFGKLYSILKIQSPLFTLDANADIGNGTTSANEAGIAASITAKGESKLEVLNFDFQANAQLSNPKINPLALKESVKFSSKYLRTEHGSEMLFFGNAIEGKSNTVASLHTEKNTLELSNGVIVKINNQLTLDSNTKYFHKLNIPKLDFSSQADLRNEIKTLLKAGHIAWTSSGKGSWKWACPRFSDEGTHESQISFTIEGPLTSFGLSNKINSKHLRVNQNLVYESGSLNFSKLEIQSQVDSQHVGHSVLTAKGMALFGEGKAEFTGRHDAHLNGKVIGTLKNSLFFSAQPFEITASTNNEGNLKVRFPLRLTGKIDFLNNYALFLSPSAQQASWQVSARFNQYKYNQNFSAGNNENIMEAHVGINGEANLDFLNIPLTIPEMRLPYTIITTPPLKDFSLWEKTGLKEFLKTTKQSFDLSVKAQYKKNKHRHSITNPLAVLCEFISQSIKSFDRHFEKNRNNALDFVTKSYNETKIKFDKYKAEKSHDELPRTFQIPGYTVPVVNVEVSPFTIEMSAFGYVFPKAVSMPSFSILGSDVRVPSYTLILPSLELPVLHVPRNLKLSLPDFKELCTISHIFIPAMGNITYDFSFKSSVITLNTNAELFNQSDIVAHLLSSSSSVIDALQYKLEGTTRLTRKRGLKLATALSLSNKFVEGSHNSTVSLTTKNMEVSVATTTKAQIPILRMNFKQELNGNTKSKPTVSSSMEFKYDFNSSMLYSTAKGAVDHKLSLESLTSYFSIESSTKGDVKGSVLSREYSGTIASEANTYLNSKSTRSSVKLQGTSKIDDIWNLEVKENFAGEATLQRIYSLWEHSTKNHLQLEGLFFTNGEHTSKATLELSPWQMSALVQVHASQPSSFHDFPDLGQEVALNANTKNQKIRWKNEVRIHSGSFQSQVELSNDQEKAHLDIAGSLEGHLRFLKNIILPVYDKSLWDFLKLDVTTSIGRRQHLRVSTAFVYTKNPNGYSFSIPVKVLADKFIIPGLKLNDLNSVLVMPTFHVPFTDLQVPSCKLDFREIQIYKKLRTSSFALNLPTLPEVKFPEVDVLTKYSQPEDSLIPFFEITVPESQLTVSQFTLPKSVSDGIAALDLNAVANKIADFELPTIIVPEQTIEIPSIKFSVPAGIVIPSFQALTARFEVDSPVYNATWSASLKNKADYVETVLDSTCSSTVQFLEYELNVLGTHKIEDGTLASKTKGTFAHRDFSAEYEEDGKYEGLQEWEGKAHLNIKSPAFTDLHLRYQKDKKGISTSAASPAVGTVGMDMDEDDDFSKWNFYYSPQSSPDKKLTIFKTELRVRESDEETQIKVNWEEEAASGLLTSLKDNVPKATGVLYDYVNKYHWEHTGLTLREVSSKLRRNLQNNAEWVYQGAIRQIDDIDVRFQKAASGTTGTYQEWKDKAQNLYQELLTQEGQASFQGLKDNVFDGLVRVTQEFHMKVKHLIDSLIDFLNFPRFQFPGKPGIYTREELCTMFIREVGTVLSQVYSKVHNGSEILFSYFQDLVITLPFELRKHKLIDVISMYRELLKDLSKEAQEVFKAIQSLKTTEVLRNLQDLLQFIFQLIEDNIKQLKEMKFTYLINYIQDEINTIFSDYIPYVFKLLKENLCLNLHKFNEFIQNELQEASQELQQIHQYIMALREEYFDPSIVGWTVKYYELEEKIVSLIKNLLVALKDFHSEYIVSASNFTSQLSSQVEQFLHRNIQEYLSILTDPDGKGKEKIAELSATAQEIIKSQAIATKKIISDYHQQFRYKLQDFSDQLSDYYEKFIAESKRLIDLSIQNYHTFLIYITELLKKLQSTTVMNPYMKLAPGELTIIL
UniProt Q99805: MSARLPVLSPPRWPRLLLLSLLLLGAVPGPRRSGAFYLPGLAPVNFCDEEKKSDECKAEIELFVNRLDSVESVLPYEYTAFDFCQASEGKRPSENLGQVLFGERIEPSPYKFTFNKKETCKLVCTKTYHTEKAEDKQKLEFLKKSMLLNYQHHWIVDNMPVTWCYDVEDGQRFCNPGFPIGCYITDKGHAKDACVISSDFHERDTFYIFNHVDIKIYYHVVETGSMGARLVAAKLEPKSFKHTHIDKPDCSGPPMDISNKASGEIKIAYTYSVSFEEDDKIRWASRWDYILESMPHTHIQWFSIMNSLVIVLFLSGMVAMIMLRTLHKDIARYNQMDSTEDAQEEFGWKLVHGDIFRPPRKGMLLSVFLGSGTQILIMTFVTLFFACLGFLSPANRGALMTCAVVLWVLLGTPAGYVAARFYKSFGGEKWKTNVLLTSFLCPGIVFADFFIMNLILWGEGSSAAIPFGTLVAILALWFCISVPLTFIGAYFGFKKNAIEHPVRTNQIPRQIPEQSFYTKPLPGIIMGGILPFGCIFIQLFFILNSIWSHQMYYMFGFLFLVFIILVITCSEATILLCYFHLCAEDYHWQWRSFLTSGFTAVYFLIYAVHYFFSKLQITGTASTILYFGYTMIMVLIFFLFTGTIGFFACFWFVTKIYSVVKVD

Target: human apolipoprotein B (apoB) of serum low density lipoprotein particles (human) (UniProt P04114)
Test: co-isolation by size exclusion chromatography; also co-purification with LDL on flotation centrifugation

binding: binds
Substance: apoBNOX (TM9 SF2), shed/truncated soluble form associated with low density lipoprotein particles of human sera (from UniProt Q99805 29-300) (enzyme)
